# Percent effect of library compounds

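Assay of Toxoplasma gondii numbers, read through their beta-galactosidase reporter with a colour substrate. Tested at 10 µM. The record gives no direction; the compounds picked for IC50 retests had high values, so higher reads as fewer parasites. Of about 67,000 compounds tested this way, about 260 (0.38%) reached 50% or more in at least one test.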

Each number is a percent effect as filed. The record does not define 0% and 100%; most values in the screen are far below 50% and negative numbers occur (in some assays of this library far below -100). This is an unselected part of the compounds tested.

SMILES | Percent Effect
O=C(NCCC1CN(C2CCCC2)CCO1)c1cc(=O)[nH]c(=O)[nH]1 (stereo unspecified) | -1.528
CC(C)c1nc(CSc2nnc(-c3cccs3)n2CC(N)=O)no1 | -19.37
COc1ccccc1C1(CNCc2ccc([S+](C)[O-])cc2)CC1 (stereo unspecified) | 11.46
NC(=O)C1CCN(Cn2nc(-c3ccccc3)oc2=O)CC1 | 20.41
Cc1ccc(C(O)CNC(=O)Nc2cc(C)nn2C)cc1 (stereo unspecified) | -40.48
Cn1ccc(C(=O)N2CCCC2c2cc[nH]n2)n1 (stereo unspecified) | -0.3699
CCCC(Nc1nc(COCC)nc2c1CCNCC2)c1nccn1C (stereo unspecified) | -0.6901
Cc1nc(N(C)C)nc2c1COCC21CCN(C(=O)C2CC2)C1 (stereo unspecified) | 2.695
COc1ccc(CN(C)Cc2nc3c(cnn3C)c(=O)[nH]2)cc1OC | -3.206
Cc1cn2nc(N3CCCC3Cn3nc(C)nc3C)sc2n1 (stereo unspecified) | 1.102
COCCOc1ncccc1CNCc1c(C)nn(C)c1N(C)C | 4.308
O=S(=O)(Cc1cccc(F)c1)NCC(O)Cc1ccccc1 (stereo unspecified) | 5.023
O=C(O)C(F)(F)F.[H][C@@]12CCN(CCc3ccccc3)C[C@]1([H])O[C@@H](C(=O)NCCOC)C2 | -4.554
c1cncc(CN2CCC(NCCc3ccc4c(c3)CCO4)CC2)c1 | 3.386
Cc1ccc(C(=O)Oc2cc(=O)n3cccc(C)c3n2)cc1 | 2.829
O=S(=O)(CCCn1cncn1)Cc1ccccc1Cl | 6.064
CN(C)CC(=O)NC1CC(C)(C)Cc2nc(C(C)(C)C)ncc21 (stereo unspecified) | -8.078
CC1c2ncc(CN3CCN(C)CC3)n2CCN1CC1CC1.O=C(O)C(F)(F)F.O=C(O)C(F)(F)F.O=C(O)C(F)(F)F (stereo unspecified) | 2.35
O=C(c1ccc(-c2cccc3c2CCNC3)o1)N1CCOCC1 | 2.186
Cc1nccc(N2C[C@H](NC(=O)CNS(C)(=O)=O)[C@@H](C3CC3)C2)n1 | 15.24
O=C(CCOc1ccccc1)N1CCCC(c2ncc[nH]2)C1 (stereo unspecified) | -6.79
CN1CCC(N2CCC(CN(Cc3ccncc3)C3CCC3)CC2)CC1 | 11.89
Cc1cnn(CC2CCCN2Cc2coc(-c3cccc(F)c3)n2)c1 (stereo unspecified) | 7.126
CCCSc1ncc(-c2nccn2CCC(N)=O)cn1 | 6.019
CO[C@H]1C[C@@H](O)C12CCN(C(=O)CCSCc1ccc(F)cc1)CC2 | -17.23
Cc1nc2n(n1)CC(Nc1cc(C(F)(F)F)nc3ncnn13)CC2 (stereo unspecified) | 1.204
COc1ccc(NC(=O)C2CC2)cc1OCc1cccnc1 | -12.82
CCOc1ccc2nc(CN3CCOC(CN)C3)ccc2c1 (stereo unspecified) | -3.91
Cc1c(C(=O)NC2CCCOc3cc(Cl)ccc32)cnn1C (stereo unspecified) | -9.6
Cc1nc(CN2CCCN(Cc3nccn3C(C)C)CC2)no1 | 2.336

Once more, the final 2:

With Cc1c(C(=O)NC2CCCOc3cc(Cl)ccc32)cnn1C (stereo unspecified) the screen gave -9.6%.
With Cc1nc(CN2CCCN(Cc3nccn3C(C)C)CC2)no1 the screen gave 2.336%.

Source: ChEMBL document CHEMBL3988442, “University of Dundee, Small-Polar-MMV Screening Library” (2021).